The source of these data is PubChem BioAssay AID2685 (National Center for Advancing Translational Sciences (NCATS), 2010).

The test is described as follows: qHTS Assay for Lipid Storage Modulators in Drosophila S3 Cells.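 As to cell number change: cells counted by Cell Tracker Red CMTPX staining in the red channel.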 Particulars: BODIPY lipid droplet fluorescence, 18-24 h; for cell number change: measured here: cell count max response, cells fed with added oleic acid. The gist of the method:
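Drosophila S3 cells got compounds at several concentrations plus oleic acid (400 uM solution). Laser-scanning cytometry with 488 nm excitation read lipid droplets at 500-530 nm and cells at 575-640 nm. Percent activity was relative to 20 uM Triacsin C.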
On the technique in general: Quantitative high-throughput screening tests each substance at several concentrations.

Setting [1] is: measured here: lipid fluorescence (Fed channel) AC50, cells fed with added oleic acid.
The mark [2] stands for this setting: measured here: cell number channel AC50, cells fed with added oleic acid.

What is called AC50 is the concentration at which the activity in the assay is half-maximal. Lower therefore signals activity at low concentration.

The list shows a part of the results. The main result of the screen is listed elsewhere. These columns were measured beside it and carry no call. The list favours compounds with an active or inconclusive main result. Potencies come from curve fits of mixed quality, noted in brackets.

Turning to `CC(NC(=O)CN1CCOCC1)c1ccccc1` (centres undefined), the cell number change is 6.35%. The AC50 under setting [1] is 18400 nM [rising, single point]. For the molecule `COc1ccc2c(COC(=O)CCS(=O)(=O)c3ccc(C)cc3)cc(=O)oc2c1`, the cell number change is -8%. On to `Cc1ccc(N(C(=O)c2snc(C(N)=O)c2N)C(C(=O)NCc2ccccc2)c2ccncc2)c(C)c1` (centres undefined), for which the cell number change is -19.8%. Further, the AC50 under setting [1] was 461 nM [rising, single point].

Take `Cc1cc(C)c(OCC(=O)NCC(C)(C)N2CCOCC2)c(C)c1`: the cell number change was determined as 12.9%. Further, the AC50 under setting [2] is 184 nM [falling, full curve, poor fit]. With `CCOc1cc(C2C3=C(CC(C)(C)CC3=O)N(CCCOC)C3=C2C(=O)CC(C)(C)C3)ccc1O`, the cell number change stood at 1.4%. Further, the AC50 under setting [1] was 16400 nM [rising, single point]. Take `CC12CCC(C(=O)NNc3ccc([N+](=O)[O-])cc3)(OC1=O)C2(C)C` (centres undefined): the cell number change is -9.82%. Further, the AC50 under setting [1] was 1300 nM [rising, partial curve]. As to `COc1cc(OC)cc(-c2nc(-c3ccc(Br)cc3)no2)c1`, the cell number change was -7.5%. Same read-out and setting: the result for `Cc1ccc(-n2c(SCC(=O)Nc3ccc(C(=O)O)cc3)nnc2-c2ccncc2)cc1` reads -22.7%. As to `COc1ccc(N2C(=O)CC(N3CCC(c4nc5ccccc5[nH]4)CC3)C2=O)cc1` (centres undefined), the cell number change worked out at 39.4%. The AC50 under setting [2] was 16400 nM [rising, single point]. With `COC(=O)c1ccc(CSc2nc3sc4c(c3c(=O)n2C)CCCC4)o1`, the cell number change was 2.54%.

For the molecule `CCOC(=O)C1=C(C)N=c2s/c(=C\c3ccc(OC(C)=O)cc3)c(=O)n2C1/C=C/c1ccccc1` (centres undefined), the cell number change was 27.2%. Under setting [2], the AC50 is 2910 nM [rising, single point]. Moreover, the half-maximal activity concentration (AC50) under setting [1] was 11600 nM [rising, partial curve, poor fit]. Regarding `CCCCCOc1ccc(C2NC(=O)NC2=O)cc1` (centres undefined), the cell number change was -24.9%. For the same molecule, the AC50 under setting [2] was 2910 nM [falling, full curve, poor fit]. Further, under setting [1], the AC50 was 3660 nM [falling, single point]. Take `CCc1ccc(NC(=O)N(Cc2ccco2)C(C)c2cccs2)cc1` (centres undefined): the cell number change was -0.323%. The AC50 under setting [1] is 731 nM [rising, single point]. As to `COc1cc(CC(=O)OCC(=O)NCCc2ccc(S(N)(=O)=O)cc2)cc(OC)c1OC`, the cell number change is -36.7%. For the same molecule, the AC50 under setting [2] is 184 nM [falling, full curve, poor fit]. In addition, the AC50 under setting [1] is 2310 nM [falling, full curve, poor fit].

In the case of `CN(C)S(=O)(=O)NCc1ccc2c(c1)OCO2`, the cell number change was -143%. Besides, under setting [2], the AC50 was 29100 nM [falling, single point]. For `c1ccc(-c2nnsc2Sc2ccccn2)cc1`, the cell number change worked out at 62.8%. Turning to `N#CC(C#N)=c1ccc2c(c1)N1C(c3ccccc3)=CC(c3ccccc3)C3CCCCC31N=2` (centres undefined), the cell number change is -13.5%. Besides, the AC50 under setting [1] was 517 nM [falling, full curve]. Turning to `CC1=C(C(=O)OCc2ccccc2)C(c2cccc(F)c2)NC(=O)N1` (centres undefined), the cell number change was -9.09%.

In the case of `COC(=O)N/N=C/c1ccccc1Cl`, the cell number change is -25%.

Consider `CCN1CCN(C2=C(NS(=O)(=O)c3ccc(NC(C)=O)cc3)C(=O)c3ccccc3C2=O)CC1`, for which the cell number change is -6.6%. On to `COc1ccc(Cl)cc1NC(=O)CN(C)S(=O)(=O)c1cccs1`, for which the cell number change is -25.4%. Also, the AC50 under setting [1] was 1300 nM [rising, partial curve, poor fit]. As to `Cc1ccc(OCC(=O)NCC(=O)Nc2ccc(F)cc2)c([N+](=O)[O-])n1`, the cell number change is -16.5%. Regarding `Cc1cc(=O)[nH]c(SCC(=O)Nc2cc(S(=O)(=O)N3CCCC3)ccc2Cl)n1`, the cell number change was 19.1%. Moreover, the AC50 under setting [2] is 4110 nM [rising, single point].

For the molecule `CC(=O)c1cccc(OCC(=O)N(Cc2ccco2)c2c(N)n(Cc3ccccc3)c(=O)[nH]c2=O)c1`, the cell number change is -7.39%. Further, the AC50 under setting [1] was 29100 nM [falling, partial curve, poor fit]. With `Cc1noc(C)c1C(=O)OC(C)C(=O)Nc1ccc(C(N)=O)cc1` (centres undefined), the cell number change is 14.1%. Moreover, under setting [2], the AC50 was 6510 nM [falling, single point]. Take `O=C(COC(=O)/C=C/c1ccc(F)cc1)NCc1cccs1`: the cell number change was found to be 1.41%. Turning to `CCN1CCN(c2ccc(NC(=O)c3cccc(OCc4ccccc4)c3)cc2)CC1`, the cell number change came to 53.8%. The AC50 under setting [2] was 7310 nM [rising, partial curve, poor fit]. On to `CCc1cc(CNC(=O)c2ccc(OC3CCN(CCc4ccccc4)CC3)cc2)on1`, for which the cell number change was 11%.

With `CCOC(=O)c1c(C)nc2c(c1C)/C(=N/O)CC(C)(C)C2`, the cell number change is 37.9%. Besides, under setting [1], the AC50 is 7310 nM [rising, partial curve, poor fit]. Take `CCOC(=O)c1cc(C#N)c(N2CCN(C)CC2)nc1-c1ccccc1`: the cell number change turned out to be 2.63%. Under setting [2], the AC50 was 130 nM [falling, single point]. Moreover, the concentration at half-maximal activity (AC50) under setting [1] is 103 nM [falling, single point]. `CCN1CCN(CC(=O)Nc2cc(F)ccc2C)CC1`: the cell number change is -40.4%. Also, the half-maximal activity concentration (AC50) under setting [2] was 1300 nM [falling, full curve]. Further, the AC50 under setting [1] is 4110 nM [falling, full curve].

For `COc1ccccc1C(=O)Nc1ncc2c(n1)CC(c1ccco1)CC2=O` (centres undefined), the cell number change was 0.388%. Under setting [1], the AC50 was 2310 nM [rising, partial curve]. Turning to `COCCN(CCOC)C(=S)Nc1ccccc1`, the cell number change is -13.6%. For the same molecule, the AC50 under setting [2] is 5170 nM [falling, single point]. Further, the AC50 under setting [1] was 2060 nM [falling, partial curve, poor fit]. As for `COC(=O)N1CCc2c(sc(NC(=O)C3COc4ccccc4O3)c2C(N)=O)C1` (centres undefined), the cell number change was -78.5%. Besides, the AC50 under setting [2] is 20600 nM [falling, partial curve]. Take `NC1=NC(=O)/C(=C/c2ccccc2OS(=O)(=O)c2ccccc2)S1`: the cell number change stood at 2.89%. Under setting [1], the AC50 is 18400 nM [rising, single point]. Turning to `CCOc1ccc(S(=O)(=O)N2CCCC(C(=O)NCc3cccnc3)C2)cc1Cl` (centres undefined), the cell number change was -1.32%. The AC50 under setting [1] is 398 nM [falling, single point].

Regarding `CC1CCN(CC(=O)NNC(=O)c2cccc(Br)c2)CC1`, the cell number change is 35.9%. Besides, the AC50 under setting [2] was 9200 nM [rising, partial curve, poor fit]. On to `CC(C)(C)c1ccc(O)c(N)c1`, for which the cell number change turned out to be 4.38%. Besides, the AC50 under setting [1] is 184 nM [falling, full curve, poor fit]. `O=c1[nH]c(CN2CCCCC2)nc2c1C1(CCCCC1)Cc1ccccc1-2`: the cell number change is -34%. Besides, under setting [2], the AC50 was 18400 nM [falling, single point]. Moreover, the AC50 under setting [1] is 651 nM [falling, single point].
